By UniProt entry, the sequences of proteins in these tests, tags left out. Where a name states a change or a piece, a line headed by the entry shows the natural chain unless it says otherwise.
UniProt Q04759: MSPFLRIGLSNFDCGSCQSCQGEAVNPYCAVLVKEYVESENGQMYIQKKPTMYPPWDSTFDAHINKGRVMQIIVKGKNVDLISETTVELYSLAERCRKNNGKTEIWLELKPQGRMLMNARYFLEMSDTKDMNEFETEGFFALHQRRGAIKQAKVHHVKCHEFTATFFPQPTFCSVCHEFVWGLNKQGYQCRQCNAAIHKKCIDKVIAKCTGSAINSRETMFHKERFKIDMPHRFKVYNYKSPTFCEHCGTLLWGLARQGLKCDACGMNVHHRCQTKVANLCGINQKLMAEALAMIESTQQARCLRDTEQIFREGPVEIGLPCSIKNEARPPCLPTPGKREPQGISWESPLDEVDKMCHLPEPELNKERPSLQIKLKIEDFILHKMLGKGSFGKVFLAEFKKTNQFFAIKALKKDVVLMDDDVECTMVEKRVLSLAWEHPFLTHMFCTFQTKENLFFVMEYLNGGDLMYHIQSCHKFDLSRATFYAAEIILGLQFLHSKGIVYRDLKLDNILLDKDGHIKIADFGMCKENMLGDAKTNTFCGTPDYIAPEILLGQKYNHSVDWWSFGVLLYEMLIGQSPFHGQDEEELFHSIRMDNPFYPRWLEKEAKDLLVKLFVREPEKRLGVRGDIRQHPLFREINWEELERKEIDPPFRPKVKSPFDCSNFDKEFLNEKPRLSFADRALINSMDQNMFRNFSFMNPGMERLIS

In patent US7732444B2, “2-(amino-substituted)-4-aryl pyrimidines and related compounds useful for treating inflammatory diseases” (Millennium Pharmaceuticals, Inc., priority 2004, dated 2010):

Target: T1, full length PKC θ (Homo sapiens, UniProt Q04759)
T1 construct: 15 μL of full length PKC θ (Panvera Corporation); purchased Panvera Corporation
Assay: PKC-theta isoform inhibition assay (HTRF, 384 well plate)
Type: biochemical
Settings: full length PKC θ at 27 pM, peptide substrate 300 nM + 3 μM ATP, HTRF readout
Description: An in vitro assay for detecting and measuring inhibition activity against PKC-theta isoform by candidate pharmacological agents is useful for evaluating and selecting a compound that modulates PKC-theta isoform. An IC50 value can be calculated after running the assay. Following is an assay protocol for measuring PKC-theta isoform.
Per well of a 384 well plate, compounds at various concentrations in 5 μL of 20% DMSO were pre-incubated for about 30 minutes at about 25° C. with 15 μL of full length PKC θ (Panvera Corporation) at 27 pM in an assay buffer (25 mM Hepes, pH 7.5, 5 mM DTT, 10 mM MgCl2, 10 mM 2-glycerophosphate, 12.5 μg/mL 1,2-dioleoyl-rac-glycerol, 10 μg/mL L-α-phosphatidyl-L-serine, 0.1% Bovine Serum Albumin). 10 μL of peptide substrate (biotin-(CH2)6— RFARKGSLRQKNV —CONH2) at 300 nM+3 μM ATP were added to each well and incubated for about 1 hour before quenching with 10 μL of 250 mM EDTA. 40 μL of detection buffer (25 mM Hepes, pH 7.5, 100 mM KF, 0.1% Bovine Serum Albumin, 0.01% Tween20) containing 2 nM anti-phospho antibody 2B9 (MBL International) labeled with europium cryptate (Cis-Bio International) and 0.0064 μg/mL streptavidin-allophycocyanin (Prozyme) was added to each well and incubated for two hours. Signal was then read on a Discovery HTRF (Packard).

Q: How did the IC50 turn out when `NCCC(=O)Nc1cccc(-c2ccnc(NCCc3ccc(O)cc3)n2)c1` [Compound 77, 3-Amino-N-(3-{2-[2-(4-hydroxy-phenyl)-ethylamino]-pyrimidin-4-yl}-phenyl)-propionamide] was run?
A: < 100 nM
